Hit rate of the full screen: of about 1,900 compounds, fewer than 10 were called active. The inconclusive results got no clear call from the source; some entries with a clear call stand among them for comparison.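 How the source made its calls: active means Green signal of the normal strain falls at least twice as much as red signal of the resistant mutant, with overall culture growth loss under a set limit; inconclusive means no clear call, values can overlap the other calls; inactive means the rest.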
Assay: wild-type E. coli growth inhibition versus h38 humanized strain – h38 mutant RFP, wild-type GFP, cherry-pick, dose response (AID 977622)
Conditions: E. coli WT ribosome GFP fluorescence, mixed culture, 24 h; at 50 µM (top of the series)
In the case of `C=CCn1c(SCC(=O)N2CCCC2=O)nc2sc(CC)cc2c1=O`, the activity change, negative = inhibition is reported as inconclusive: 17.2.
For `O=C(c1ccc(-n2cccn2)cc1)N1CCc2ccccc2C1`, the activity change, negative = inhibition was inactive: -7.4.
In the case of `O=[N+]([O-])c1ccc(/C=C/c2ccc3cccc([N+](=O)[O-])c3n2)cc1`, the activity change, negative = inhibition is reported as inconclusive: 5.23.
In the case of `CCOc1ccc(CN(C)C(=O)c2ccc(NS(=O)(=O)c3ccc4[nH]c(=O)[nH]c4c3)cc2)cc1`, the activity change, negative = inhibition is reported as inconclusive: -2.41.
With `CCCC(=O)N(CCc1ccc(OC)cc1)Cc1nc2ccccc2c(=O)[nH]1` the activity change, negative = inhibition was inconclusive: 0.517.
For `CCn1ccnc1CN1CCCC(C(=O)c2ccc3cc(OC)ccc3c2)C1` (stereo not drawn), the activity change, negative = inhibition was inconclusive: 3.35.
For `CCOC(=O)c1cc2sccc2n1CCCN1C(=O)c2ccccc2C1=O`, the activity change, negative = inhibition was inconclusive: -20.4.
With `CC1CCN(CC(O)COCCC23CC4CC(CC(C4)C2)C3)CC1` (stereo not drawn) the activity change, negative = inhibition was inconclusive: -15.1.
For `COc1ccc(Cc2c(-c3cccc(Cl)c3)nc3ccc(Cl)cn23)c(C)c1`, the activity change, negative = inhibition was inactive: -10.5.
In the case of `CC(C)CNC(=O)c1cccc(NC(=O)C(C)Oc2ccccc2)c1` (stereo not drawn), the activity change, negative = inhibition is reported as inconclusive: -3.42.
With `COc1ccc(-c2nc3c(C)cc(Br)cn3c2Cc2ccc(C)cc2)cc1OC` the activity change, negative = inhibition was inconclusive: -6.52.
With `C[C@H](CO)N1C[C@H](C)[C@H](CN(C)C(=O)Nc2ccc(F)cc2)Oc2c(NC(=O)Nc3ccccc3)cccc2C1=O` the activity change, negative = inhibition was inactive: -2.95.
In the case of `Cc1nc2ncnn2c(N2CCC(C(=O)NC3CCCC3)CC2)c1Cc1ccccc1`, the activity change, negative = inhibition is reported as inconclusive: -0.549.
With `C[C@@H]1CCCCO[C@@H](CN(C)C(=O)CCCN(C)C)[C@H](C)CN([C@H](C)CO)C(=O)c2cc(NC(=O)Nc3cccc4ccccc34)ccc2O1` the activity change, negative = inhibition was inconclusive: -7.55.
In the case of `O=[N+]([O-])c1ccc(O)c(CSc2nnnn2-c2ccccc2)c1`, the activity change, negative = inhibition is reported as inconclusive: -10.5.
In the case of `O=C(COn1nnc2ccc(C(F)(F)F)cc21)Nc1c(Cl)cccc1Cl`, the activity change, negative = inhibition is reported as inconclusive: 5.79.
With `CCc1cccc(CC)c1NC(=O)Cn1c(-c2ccc(F)cc2)noc1=O` the activity change, negative = inhibition was inconclusive: -2.44.
With `O=C1c2ccccc2S(=O)(=O)c2cc(N3CCC(C(=O)N4CCCCC4)CC3)ccc21` the activity change, negative = inhibition was inconclusive: -19.1.
With `COC(=O)c1cc2ccccc2n1S(=O)(=O)c1ccccc1` the activity change, negative = inhibition was inconclusive: -9.46.
With `CCCCNC(=O)c1cc2c(C)cc(C)cc2[nH]1` the activity change, negative = inhibition was inconclusive: -20.
For `CN(C)CCCN(C(=O)COc1ccc(Cl)cc1)c1nc2ccc(F)cc2s1`, the activity change, negative = inhibition was inconclusive: 0.385.
In the case of `CCc1ccc(CN2CCCC(CNS(=O)(=O)c3ccc(OC)cc3)C2)cc1` (stereo not drawn), the activity change, negative = inhibition is reported as inactive: 14.2.
For `O=C(c1cnc(Cc2c[nH]c3ccccc23)c(I)c1)N1CCCCC1`, the activity change, negative = inhibition was inconclusive: -10.8.
With `O=S(=O)(NCc1cc(-c2ccccc2)no1)c1ccccc1Cl` the activity change, negative = inhibition was inconclusive: 0.398.
With `O=S(=O)(Cc1ccccc1)N1CCCCN2[C@@H](CO)[C@@H](c3ccc(-c4cccnc4)cc3)[C@@H]2C1` the activity change, negative = inhibition was inactive: -3.62.
In the case of `NS(=O)(=O)c1ccc(NC(=O)CCC(=O)O)cc1`, the activity change, negative = inhibition is reported as inconclusive: 12.
For `CC(C)c1cc(C(N)=O)c(NC(=O)C2CCC2)s1`, the activity change, negative = inhibition was inconclusive: -32.8.
With `O=C(Nc1nc2ccccc2n1CCN1CCOCC1)c1ccccc1` the activity change, negative = inhibition was inconclusive: -15.7.
In the case of `O=C(Nc1cccc(Cl)c1)N1C[C@H]2[C@@H](c3ccccc31)[C@H](CO)N2CC1CCCCC1`, the activity change, negative = inhibition is reported as inconclusive: -3.46.
In the case of `COc1ccc(-c2cc(C(=O)NCc3ccc(C(F)(F)F)cc3)[nH]n2)c(C)c1`, the activity change, negative = inhibition is reported as inconclusive: -27.6.
In the case of `COC(=O)CC1COc2ccccc2N1C(=O)c1ccc(Br)cc1` (stereo not drawn), the activity change, negative = inhibition is reported as inconclusive: 2.36.
With `Cc1noc(C)c1NC(=O)Nc1ccc2c(c1)C(=O)N([C@@H](C)CO)C[C@@H](C)[C@H](CN(C)C(=O)Nc1ccc3c(c1)OCO3)OCCCC[C@H](C)O2` the activity change, negative = inhibition was inactive: 0.903.
For `CCOC(=O)CN1C(=O)C(CC)Oc2ccc(Cl)cc21` (stereo not drawn), the activity change, negative = inhibition was inconclusive: 8.09.
For `COc1ccc(C)cc1-n1c(=O)c2ccccc2c2ccccc2c1=O`, the activity change, negative = inhibition was inconclusive: -10.8.
In the case of `Cn1cc(CN2CCCC(C(=O)c3cccs3)C2)c(-c2cccc(Cl)c2)n1` (stereo not drawn), the activity change, negative = inhibition is reported as inconclusive: -3.51.
For `CCN(CC)S(=O)(=O)c1ccc(N2CCCC2)c(NC(=O)c2ccc([N+](=O)[O-])o2)c1`, the activity change, negative = inhibition was inconclusive: -38.5.
In the case of `CCC1CCCCN1C(=O)CSc1nnc(-c2cccc(Cl)c2)o1` (stereo not drawn), the activity change, negative = inhibition is reported as inconclusive: -9.65.
With `O=C(Nc1ccc(Cl)cn1)c1ccc([N+](=O)[O-])o1` the activity change, negative = inhibition was inactive: -6.68.
For `CCN(CC(=O)Nc1cccc(S(=O)(=O)N2CCCC2)c1)CC(=O)Nc1ccccc1OC`, the activity change, negative = inhibition was inconclusive: -12.4.
For `COCc1[nH]nc2c1C(c1ccc3c(c1)OCO3)N(c1ccc(OC)cc1)C2=O` (stereo not drawn), the activity change, negative = inhibition was inactive: 7.56.
In the case of `Cc1ccc2sc(N(CCCN(C)C)C(=O)c3ccc(S(=O)(=O)N4CCc5ccccc5C4)cc3)nc2c1C`, the activity change, negative = inhibition is reported as inconclusive: -9.97.
In the case of `Nc1ccccc1Sc1c[nH]c2ccccc12`, the activity change, negative = inhibition is reported as inconclusive: -6.04.
For `Cc1ccc(C2NC(c3ccc(C)cc3)C(C)C(=O)C2C)cc1` (stereo not drawn), the activity change, negative = inhibition was inconclusive: -1.3.
With `Cc1ccc(-n2c(SCC(N)=O)nnc2-c2cnccn2)cc1` the activity change, negative = inhibition was inactive: -2.31.
In the case of `CCCCCCC(=O)N1CCCC(c2nc(-c3cccc(OC)c3)no2)C1` (stereo not drawn), the activity change, negative = inhibition is reported as inconclusive: -4.23.
For `O=S(=O)(NC1CC1)c1ccc(S(=O)(=O)N2CCc3ccccc32)cc1`, the activity change, negative = inhibition was inconclusive: -8.78.
For `O=C(CC1SC(=O)N(Cc2ccccc2Cl)C1=O)Nc1nccs1` (stereo not drawn), the activity change, negative = inhibition was inconclusive: 3.94.
In the case of `COc1cc2ccccc2cc1C(=O)NC1CCCCC1`, the activity change, negative = inhibition is reported as inactive: 6.07.
With `O=C(COC(=O)CCC(=O)c1ccc(F)cc1)NCCc1ccccc1` the activity change, negative = inhibition was inconclusive: -13.5.
In the case of `CCOc1ccc(OCC)c(NC(=O)CSc2nc3cccnc3n2C)c1`, the activity change, negative = inhibition is reported as inconclusive: -24.6.
In the case of `CN(c1cccc(NC(=O)c2ccc(CN3CCc4ccccc4C3)cc2)c1)S(C)(=O)=O`, the activity change, negative = inhibition is reported as inconclusive: -10.3.
For `Cc1ccc(NC(=O)C[n+]2cc(-c3ccccc3)n3c2CCC3)cc1`, the activity change, negative = inhibition was inconclusive: -8.03.
With `O=C(Nc1ccccc1F)N1C[C@@H]2[C@H](c3ccccc31)[C@@H](CO)N2C(=O)Cc1ccccc1` the activity change, negative = inhibition was inconclusive: -78.1.
